Results taken from publication PMC3266932.
Results are given in words; binding and its absence hold for the method and conditions named. Binding seen in cells or lysates may run through a third protein. A yes stands for co-enrichment or nearness to the bait. Other partners may have been found. One block for each molecule: values may come before it.

Protein sequences, listed by entry. Tags and fused reporters are not part of them.
UniProt Q15648: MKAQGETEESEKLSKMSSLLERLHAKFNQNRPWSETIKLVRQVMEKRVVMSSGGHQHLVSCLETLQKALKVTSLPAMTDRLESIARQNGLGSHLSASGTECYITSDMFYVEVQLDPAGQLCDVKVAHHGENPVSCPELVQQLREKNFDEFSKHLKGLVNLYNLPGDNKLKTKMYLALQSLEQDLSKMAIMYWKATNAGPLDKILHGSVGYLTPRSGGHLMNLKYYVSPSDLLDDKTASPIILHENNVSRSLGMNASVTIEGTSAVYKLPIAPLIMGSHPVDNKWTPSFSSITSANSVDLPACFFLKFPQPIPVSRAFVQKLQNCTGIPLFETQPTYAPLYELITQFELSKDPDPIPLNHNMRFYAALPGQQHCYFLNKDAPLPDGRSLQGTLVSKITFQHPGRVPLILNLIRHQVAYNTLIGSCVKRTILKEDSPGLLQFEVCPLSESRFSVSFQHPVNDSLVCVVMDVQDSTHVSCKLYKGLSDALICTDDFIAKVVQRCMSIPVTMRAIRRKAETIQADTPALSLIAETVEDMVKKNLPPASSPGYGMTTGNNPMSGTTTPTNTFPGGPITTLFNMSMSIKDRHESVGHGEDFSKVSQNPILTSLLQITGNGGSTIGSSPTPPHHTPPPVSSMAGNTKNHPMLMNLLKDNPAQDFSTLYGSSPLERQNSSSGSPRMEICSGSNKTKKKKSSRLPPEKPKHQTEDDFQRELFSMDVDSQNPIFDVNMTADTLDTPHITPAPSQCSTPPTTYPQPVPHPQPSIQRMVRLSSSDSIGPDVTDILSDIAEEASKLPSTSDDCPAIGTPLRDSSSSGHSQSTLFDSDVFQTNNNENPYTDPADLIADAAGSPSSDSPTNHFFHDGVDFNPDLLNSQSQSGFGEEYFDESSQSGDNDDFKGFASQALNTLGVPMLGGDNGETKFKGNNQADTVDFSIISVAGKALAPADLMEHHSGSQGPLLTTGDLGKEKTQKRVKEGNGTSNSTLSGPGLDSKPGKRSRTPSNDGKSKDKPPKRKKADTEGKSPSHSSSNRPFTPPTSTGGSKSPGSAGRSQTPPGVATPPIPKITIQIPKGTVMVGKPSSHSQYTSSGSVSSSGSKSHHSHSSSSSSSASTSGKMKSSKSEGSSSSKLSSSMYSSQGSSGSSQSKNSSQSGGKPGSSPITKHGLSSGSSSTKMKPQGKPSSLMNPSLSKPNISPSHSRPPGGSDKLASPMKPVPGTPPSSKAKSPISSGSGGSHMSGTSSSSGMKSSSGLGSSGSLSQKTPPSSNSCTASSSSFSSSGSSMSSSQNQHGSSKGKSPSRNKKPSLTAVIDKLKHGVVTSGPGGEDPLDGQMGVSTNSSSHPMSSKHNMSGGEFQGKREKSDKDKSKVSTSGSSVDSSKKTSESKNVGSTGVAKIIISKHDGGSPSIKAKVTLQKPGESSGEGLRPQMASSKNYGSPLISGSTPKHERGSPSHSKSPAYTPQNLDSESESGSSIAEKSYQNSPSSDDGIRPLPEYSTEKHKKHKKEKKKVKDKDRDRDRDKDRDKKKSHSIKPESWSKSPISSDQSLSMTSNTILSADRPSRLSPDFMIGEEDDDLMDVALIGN

Target: T1, human SAV1 overexpressed in 293 cells (bait of the SAV1 complex for mass spectrometry) (human) (UniProt Q9H4B6)
T1 sequence: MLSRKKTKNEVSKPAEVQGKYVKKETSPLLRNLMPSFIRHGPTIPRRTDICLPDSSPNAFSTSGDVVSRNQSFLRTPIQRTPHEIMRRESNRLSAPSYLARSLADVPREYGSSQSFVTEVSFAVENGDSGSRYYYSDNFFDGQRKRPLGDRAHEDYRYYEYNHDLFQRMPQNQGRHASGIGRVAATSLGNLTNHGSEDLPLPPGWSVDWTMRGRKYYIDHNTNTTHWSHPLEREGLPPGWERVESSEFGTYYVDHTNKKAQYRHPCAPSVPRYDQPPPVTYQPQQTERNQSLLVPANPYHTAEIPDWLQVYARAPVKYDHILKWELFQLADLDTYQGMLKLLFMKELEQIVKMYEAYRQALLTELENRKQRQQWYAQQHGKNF
Assay: affinity purification with mass spectrometry; SAV1 complex purified by immunoprecipitation from 293 cells overexpressing human SAV1 and/or human MST2; mass spectrometric analysis

binding: binds
Molecule: Mediator complex subunit 1 (MED1) (from UniProt Q15648 1-1581)

binding: binds
B1: PPARγ coactivator (PGC)-1β (protein, UniProt Q86YN6 1-1023)
chain: MAGNDCGALLDEELSSFFLNYLADTQGGGSGEEQLYADFPELDLSQLDASDFDSATCFGELQWCPENSETEPNQYSPDDSELFQIDSENEALLAELTKTLDDIPEDDVGLAAFPALDGGDALSCTSASPAPSSAPPSPAPEKPSAPAPEVDELSLLQKLLLATSYPTSSSDTQKEGTAWRQAGLRSKSQRPCVKADSTQDKKAPMMQSQSRSCTELHKHLTSAQCCLQDRGLQPPCLQSPRLPAKEDKEPGEDCPSPQPAPASPRDSLALGRADPGAPVSQEDMQAMVQLIRYMHTYCLPQRKLPPQTPEPLPKACSNPSQQVRSRPWSRHHSKASWAEFSILRELLAQDVLCDVSKPYRLATPVYASLTPRSRPRPPKDSQASPGRPSSVEEVRIAASPKSTGPRPSLRPLRLEVKREVRRPARLQQQEEEDEEEEEEEEEEEKEEEEEWGRKRPGRGLPWTKLGRKLESSVCPVRRSRRLNPELGPWLTFADEPLVPSEPQGALPSLCLAPKAYDVERELGSPTDEDSGQDQQLLRGPQIPALESPCESGCGDMDEDPSCPQLPPRDSPRCLMLALSQSDPTFGKKSFEQTLTVELCGTAGLTPPTTPPYKPTEEDPFKPDIKHSLGKEIALSLPSPEGLSLKATPGAAHKLPKKHPERSELLSHLRHATAQPASQAGQKRPFSCSFGDHDYCQVLRPEGVLQRKVLRSWEPSGVHLEDWPQQGAPWAEAQAPGREEDRSCDAGAPPKDSTLLRDHEIRASLTKHFGLLETALEEEDLASCKSPEYDTVFEDSSSSSGESSFLPEEEEEEGEEEEEDDEEEDSGVSPTCSDHCPYQSPPSKANRQLCSRSRSSSGSSPCHSWSPATRRNFRCESRGPCSDRTPSIRHARKRREKAIGEGRVVYIQNLSSDMSSRELKRRFEVFGEIEECEVLTRNRRGEKYGFITYRCSEHAALSLTKGAALRKRNEPSFQLSYGGLRHFCWPRYTDYDSNSEEALPASGKSKYEAMDFDSLLKEAQQSLH
